PubChem BioAssay AID652272 – Drosophila RNAi Screening Center, 2013
The screen tested about 21,000 reagents; this is an unselected part of those that have a named target and a result. Over the whole deposit, 503 (2.4%) got an active call. 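Raw plate light values, not normalised; calls rest on replicate z-scores that were not deposited; hits include reporter decreases as well as increases.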 A plus sign joins genes that one reagent is predicted to hit. Not given: the amount of reagent, the time to read-out.

- Test: 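Genome-wide knock-down search for components of Hedgehog signalling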 (primary screen)
- Cell system: Drosophila clone 8 (Cl8) cells
- Knock-down reagent: long dsRNA against Drosophila genes
- Read-out: 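Firefly light from a Hedgehog-responsive ptc promoter reporter and Renilla reference light, both read on a plate reader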
- Scale: firefly Hh reporter signal: higher = more ptc reporter light; Renilla reference signal: higher = more Renilla control light
- Active means: 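Hit when the z-score averaged over two replicates is under -2 or over +3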
- Meaning of the calls: active = hit: reporter lowered or raised; inactive = not a hit

The opening 3 entries, to show the layout:
Target gene | PubChem SID | firefly Hh reporter signal, replicate 1 | firefly Hh reporter signal, replicate 2 | firefly Hh reporter signal, replicate 3 | Renilla reference signal, replicate 1 | Renilla reference signal, replicate 2 | outcome
CG5039 | SID104195495 | 6.99e5 | 1.64e5 | – | 37814 | 5371 | inactive
betaggt-I | SID104183286 | 1.27e5 | 42973 | – | 2992 | 4648 | inactive
Dhc16F | SID104200034 | 92080 | 2.61e5 | – | 2289 | 10658 | inactive

The list itself, from the start:
Target gene | PubChem SID | firefly Hh reporter signal, replicate 1 | firefly Hh reporter signal, replicate 2 | firefly Hh reporter signal, replicate 3 | Renilla reference signal, replicate 1 | Renilla reference signal, replicate 2 | outcome
CG5039 | SID104195495 | 6.99e5 | 1.64e5 | – | 37814 | 5371 | inactive
betaggt-I | SID104183286 | 1.27e5 | 42973 | – | 2992 | 4648 | inactive
Dhc16F | SID104200034 | 92080 | 2.61e5 | – | 2289 | 10658 | inactive
Ir75b | SID104189981 | 98656 | – | – | 4089 | 2848 | inactive
CG6550 | SID104186793 | 1.20e5 | 78389 | – | 4852 | 2499 | inactive
CG9806 | SID104198236 | 57747 | 1.89e5 | – | 2013 | 8135 | inactive
RfC3 | SID104183203 | 1.02e5 | 48108 | – | 2797 | 4481 | inactive
Ucp4A | SID104199788 | 1.31e5 | 4.18e5 | – | 4484 | 16538 | inactive
CG34238 | SID104188832 | 1.12e5 | 2.53e5 | – | 3284 | 10155 | inactive
sbm | SID104199977 | 86992 | 1.67e5 | – | 3088 | 6566 | inactive
Ser7 | SID104197993 | 90861 | 85097 | – | 2118 | 1864 | inactive
CG42323 | SID104199421 | 91332 | 3.39e5 | – | 2310 | 13604 | inactive
CG34452 | SID104189179 | 2.15e5 | – | – | 4851 | – | inactive
Diap1 | SID104191196 | 3968 | 2784 | – | 309 | 131 | active
CG8152 | SID104186875 | 84912 | 65192 | – | 1907 | 5047 | inactive
CG12121 | SID104197608 | 73632 | 1.82e5 | – | 2386 | 7146 | inactive
Ctns | SID104194967 | 5.43e5 | 85259 | – | 26528 | 2761 | inactive
CG6951 | SID104190547 | 71968 | 1.36e5 | – | 2348 | 4058 | inactive
mus201 + Chrac-14 | SID104183360 | 95597 | 51130 | – | 2259 | 4420 | inactive
mus201 + Chrac-14 | SID104183367 | 72880 | 38644 | – | 1802 | 3584 | inactive
Tm2 | SID104196679 | 72988 | 80827 | – | 1981 | 2438 | inactive
ana1 | SID104195871 | 1.93e5 | 1.50e5 | – | 6449 | 6064 | inactive
Fatp3 | SID104184158 | 62173 | 46157 | – | 1573 | 3794 | inactive
edl | SID104186308 | 99692 | 72432 | – | 4832 | 3098 | inactive
gas | SID104184313 | 66208 | 70550 | – | 1479 | 6224 | inactive
Spase22-23 | SID104195649 | 4.49e5 | 92610 | – | 27795 | 3507 | inactive
Mrtf | SID104188055 | 28955 | 9147 | – | 1328 | 1088 | active
Mrtf | SID104188202 | 53308 | 21329 | – | 2301 | 2224 | inactive
Mrtf | SID104188203 | 75258 | 31330 | – | 2532 | 2888 | inactive
spdi | SID104198279 | 1.37e5 | 94210 | – | 2976 | 2624 | inactive
spdi | SID104198280 | 83792 | 1.66e5 | – | 3181 | 6384 | inactive
Send2 | SID104181698 | 1.32e5 | 50566 | – | 3350 | 4370 | inactive
Smyd5 | SID104195275 | 4.94e5 | 81035 | – | 27388 | 377 | inactive
CG43108 | SID104185446 | 1.75e5 | 2.77e5 | – | 5012 | 12157 | inactive
CG17264 | SID104180292 | 51504 | 1.20e5 | – | 2752 | 5212 | inactive
CG13838 | SID104194480 | 7.83e5 | 6.66e5 | 1.28e5 | 35952 | 3369 | inactive
ZnT63C | SID104187824 | 1.18e5 | 2.34e5 | – | 3869 | 9318 | inactive
ZnT63C | SID104187825 | 1.04e5 | 2.25e5 | – | 3058 | 9021 | inactive
ZnT63C | SID104188311 | 1.44e5 | 1.06e5 | – | 6296 | 4473 | inactive
CG7582 | SID104196053 | 87114 | 87770 | – | 2855 | 2360 | inactive
CG11350 | SID104187973 | 67401 | 5.03e5 | 37987 | 7883 | 31652 | inactive
Spn85F | SID104194337 | 4.81e5 | 1.08e5 | – | 4842 | 4842 | inactive
CG6937 + btn | SID104196709 | 4.48e5 | 88385 | – | 21810 | 2299 | inactive
Mst98Cb | SID104196542 | 1.88e5 | 7.21e5 | 1.80e5 | 6676 | 5782 | inactive
CG33234 | SID104187786 | 1.01e5 | 1.95e5 | – | 2634 | 8162 | inactive
kairos | SID104199764 | 1.17e5 | 83415 | – | 2549 | 2154 | inactive
CG7202 | SID104191610 | 1.31e5 | 1.48e5 | – | 4531 | 4684 | inactive
CG6800 | SID104195911 | 8.21e5 | 1.58e5 | – | 37723 | 3244 | inactive
CG14694 | SID104194709 | 56709 | 98536 | – | 1745 | 2937 | inactive
CG6236 | SID104195791 | 90685 | 80521 | – | 3581 | 3395 | inactive
Tengl1 | SID104180273 | 90729 | 60817 | – | 2436 | 1576 | inactive
cg | SID104187442 | 19061 | 3372 | – | 1366 | 637 | active
Prosbeta2 | SID104191049 | 51187 | 81431 | – | 3921 | 4193 | active
Ada2a + Polr2D | SID104195998 | 6.32e5 | 91977 | – | 32741 | 1576 | inactive
dsf | SID104183316 | 1.48e5 | 38829 | – | 2904 | 2464 | inactive
CG7551 | SID104190668 | 62944 | 44960 | 52848 | 3979 | 3114 | inactive
CG34296 | SID104193753 | 57066 | 3.60e5 | – | 13722 | 7465 | inactive
